Test results: paper PMC11321995

Chains of the proteins cited; added tags and fusions are not shown. Lines headed by an entry give the natural chain unless they say otherwise; changes in a name come on top.
UniProt P32243: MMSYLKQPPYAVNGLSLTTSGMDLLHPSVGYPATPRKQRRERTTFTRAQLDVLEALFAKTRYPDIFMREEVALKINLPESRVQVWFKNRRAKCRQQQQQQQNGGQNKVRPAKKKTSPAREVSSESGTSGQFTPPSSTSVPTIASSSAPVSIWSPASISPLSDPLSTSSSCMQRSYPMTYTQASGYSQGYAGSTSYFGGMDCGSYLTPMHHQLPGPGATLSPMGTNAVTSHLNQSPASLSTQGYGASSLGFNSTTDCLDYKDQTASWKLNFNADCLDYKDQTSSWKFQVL

Target: 3XHA-tagged human OTX2 lacking its DNA-binding homeodomain (human) (UniProt P32243)
Assay: co-IP; HDMB03 cells overexpressing 3XHA-tagged wild-type OTX2 or OTX2 lacking its homeodomain; precipitated with a haemagglutinin antibody; immunoblot for LASR proteins

B1: heterogeneous nuclear ribonucleoprotein M (HNRNPM) (protein, UniProt P52272 1-730)
chain: MAAGVEAAAEVAATEIKMEEESGAPGVPSGNGAPGPKGEGERPAQNEKRKEKNIKRGGNRFEPYANPTKRYRAFITNIPFDVKWQSLKDLVKEKVGEVTYVELLMDAEGKSRGCAVVEFKMEESMKKAAEVLNKHSLSGRPLKVKEDPDGEHARRAMQKVMATTGGMGMGPGGPGMITIPPSILNNPNIPNEIIHALQAGRLGSTVFVANLDYKVGWKKLKEVFSMAGVVVRADILEDKDGKSRGIGTVTFEQSIEAVQAISMFNGQLLFDRPMHVKMDERALPKGDFFPPERPQQLPHGLGGIGMGLGPGGQPIDANHLNKGIGMGNIGPAGMGMEGIGFGINKMGGMEGPFGGGMENMGRFGSGMNMGRINEILSNALKRGEIIAKQGGGGGGGSVPGIERMGPGIDRLGGAGMERMGAGLGHGMDRVGSEIERMGLVMDRMGSVERMGSGIERMGPLGLDHMASSIERMGQTMERIGSGVERMGAGMGFGLERMAAPIDRVGQTIERMGSGVERMGPAIERMGLSMERMVPAGMGAGLERMGPVMDRMATGLERMGANNLERMGLERMGANSLERMGLERMGANSLERMGPAMGPALGAGIERMGLAMGGGGGASFDRAIEMERGNFGGSFAGSFGGAGGHAPGVARKACQIFVRNLPFDFTWKMLKDKFNECGHVLYADIKMENGKSKGCGVVKFESPEVAERACRMMNGMKLSGREIDVRIDRNA
binding: binds

Results are given in words; binding and its absence hold for the method and conditions named. In cells and extracts the contact can be indirect. Binding can be weak; no strength is given.
